US12409183B2, “Method of using iloprost for treating frostbite” (BTG INTERNATIONAL INC., priority 2023, dated 2025)
Where “and” joins values, the source holds several entries; their conditions need not be identical. Equal entries are not always repeated. This continues a long series; more values of the same kind are listed elsewhere.

Test: IV bag solution stability of fully diluted ready-to-use iloprost (HPLC)
Type: physicochemical
Protocol: Iloprost 100 μg/mL injection product is administered to patients by IV bag infusion over a period of six hours. The fully diluted ready to use iloprost is prepared in pharmacy cleanroom using sterile preparation standards (USP Chapter <797>) by pharmacy trained and licensed staff. The fully diluted ready to use drug product may be prepared several hours ahead of treatment with storage at ambient conditions or several days ahead of treatment with storage at refrigerated (2-8° C.) conditions. […] The bags are then manually mixed gently to provide a uniform solution. Administration IV bags were prepared and stored at several conditions with routine sampling for assay testing for stability under i) 25° C./60% RH, ii) 5° C. for 5 days to 25° C./60% RH, iii) 5° C. for 8 days to 25° C./60% RH. IV Bag Sample Preparation: Two 50 mL syringes with 18-gauge needles were assembled. 1.0 mL syringe with 18-gauge needle was assembled. Using a 50 ml syringe, 50 mL of 0.9% NaCl was transferred into an empty IV bag (sterile, ICU Medical) using the injection port. Using a second 50 ml syringe, 49 mL of 0.9% NaCl was transferred into the same IV bag using the injection port resulting in 99 mL of solution. […] The needle was removed and the port was securely closed. The IV bag was gently inverted several times to mix. During inversion, it was occasionally paused to squeeze the injection port area to ensure liquid rinsed into area several times. Sampling Procedure: For sampling, a 3 mL syringe was assembled with an 18-gauge needle. Using a 3 mL syringe, 2 mL of IV bag solution was withdrew through the injection port and 1 mL was transferred to a HPLC vial for neat injection and the other 1 mL was transferred to a back-up HPLC vial. HPLC vials were stored at refrigerated conditions 2-8° C. Sample Storage and Sampling: For each testing conditions (i-iv discussed above), 12 IV bag samples were prepared (6 IV bags for condition ia)-see below for sampling time). For condition i), all 12 IV bags were then placed into 25° C./60% RH stability chamber ensuring each bag is resting on its largest surface area side. After the first time point, the IV bags were removed from the chamber and each IV bag was mixed by inversion several times. Sampling from each IV bag was taken for HPLC analysis. After sampling, the IV bags were placed back into 25° C./60% RH stability chamber ensuring each bag is resting on its largest surface area side, until next sampling time. At each sampling time, the IV bags were removed from the chamber and each IV bag was mixed by inversion several times before samples were removed. For conditions ii) and iii), all 12 IV bags for each testing condition were placed into a 2-8° C. stability chamber ensuring each bag is resting on its largest surface area side. After 5 days have passed for condition ii) or after 8 days have passed for condition iii), the IV bags were removed from the chamber and allowed to equilibrate to room temperature. Each IV bag was mixed by inversion several times. Sampling from each IV bag was taken for HPLC analysis. Then the IV bags were placed in the 25° C./60% RH stability chamber and sampled at certain time points as discussed herein. Sampling time for condition […], and 24 h Sampling time for ib): 8 h, 12 h, 48 h, and 96 h Sampling time for condition ii): 5 days (at the end of storage in 2-8° C. stability chamber), 5 days and 8 h, and 5 days and 12 h Sampling time for condition iii): 8 days (at the end of storage in 2-8° C. stability chamber), 8 days and 8 h, and 8 days and 12 h Sample Analysis: Samples were analyzed by HPLC using a validated method (validation protocol not shown). [table] The concentration of each sample per the equation below: […] The % Initial (initial concentration) of each stored sample was determined per the equation below: […]

[1] = Batch 2, 5° C. for 8 days, 25° C./60% RH for 8 hr
[2] = Batch 2, 5° C. for 8 days, 25° C./60% RH for 12 hr
[3] = Batch 2, 8-day study (Table 1G), 5° C. for 5 days

## CC#CCC(C)[C@H](O)/C=C/[C@@H]1[C@H]2C/C(=C/CCCC(=O)O)C[C@H]2C[C@H]1O (stereo partly drawn) [iloprost, (5E)-5-[(3aS,4R,5R,6aS)-5-hydroxy-4-[(E,3S)-3-hydroxy-4-methyloct-1-en-6-ynyl]-3,3a,4,5,6,6a-hexahydro-1H-pentalen-2-ylidene]pentanoic acid]
Batch 1, 5° C. for 8 days to 25° C./60% RH study, Initial (T = 0)
  Iloprost: 957.6 ng/mL and 970.1 ng/mL and 966.1 ng/mL and 989.6 ng/mL and 959.6 ng/mL and 964.8 ng/mL
Batch 1, 5° C. for 8 days, 25° C./60% RH for 8 hr
  Iloprost: 963.5 ng/mL and 955.9 ng/mL and 967.8 ng/mL and 938.7 ng/mL and 1033 ng/mL and 961.8 ng/mL
Batch 1, 5° C. for 8 days, 25° C./60% RH for 12 hr
  Iloprost: 980.5 ng/mL and 964.1 ng/mL and 986.4 ng/mL and 967.5 ng/mL and 964.2 ng/mL and 952 ng/mL
Batch 1, 8-day study (Table 1F), 5° C. for 5 days
  Iloprost: 994.4 ng/mL and 953.2 ng/mL and 978.4 ng/mL and 953.1 ng/mL and 984.2 ng/mL and 956.7 ng/mL
Batch 2, 5° C. for 5 days to 25° C./60% RH study, Initial (T = 0)
  Iloprost: 1011 ng/mL and 986 ng/mL and 1022 ng/mL (2×) and 1001 ng/mL
Batch 2, 5° C. for 5 days, 25° C./60% RH for 12 hr
  Iloprost: 1003 ng/mL and 1017 ng/mL and 985.9 ng/mL
Batch 2, 5° C. for 8 days to 25° C./60% RH study, Initial (T = 0)
  Iloprost: 992.7 ng/mL and 979.6 ng/mL and 983.6 ng/mL and 998.9 ng/mL and 1009 ng/mL and 1026 ng/mL
[1]
  % Initial: 100% and 98% and 101% and 99% and 102%
  Iloprost: 983.9 ng/mL and 964.5 ng/mL and 1004 ng/mL and 997.6 ng/mL and 1011 ng/mL and 1010 ng/mL
[2]
  % Initial: 99% and 98% and 101% and 100% and 102%
  Iloprost: 967.5 ng/mL and 964.4 ng/mL and 1007 ng/mL and 1011 ng/mL and 1013 ng/mL and 1009 ng/mL
[3]
  % Initial: 100%
  Iloprost: 970.1 ng/mL and 957.9 ng/mL and 1020 ng/mL and 1007 ng/mL and 993.6 ng/mL and 1014 ng/mL
